{
  "sequences": {"note": "Sequences of proteins named here, by UniProt entry; tags and fusion partners are left off. A change or cut given only in a name is not applied to a line headed by its entry.", "UniProt Q5T5U3": "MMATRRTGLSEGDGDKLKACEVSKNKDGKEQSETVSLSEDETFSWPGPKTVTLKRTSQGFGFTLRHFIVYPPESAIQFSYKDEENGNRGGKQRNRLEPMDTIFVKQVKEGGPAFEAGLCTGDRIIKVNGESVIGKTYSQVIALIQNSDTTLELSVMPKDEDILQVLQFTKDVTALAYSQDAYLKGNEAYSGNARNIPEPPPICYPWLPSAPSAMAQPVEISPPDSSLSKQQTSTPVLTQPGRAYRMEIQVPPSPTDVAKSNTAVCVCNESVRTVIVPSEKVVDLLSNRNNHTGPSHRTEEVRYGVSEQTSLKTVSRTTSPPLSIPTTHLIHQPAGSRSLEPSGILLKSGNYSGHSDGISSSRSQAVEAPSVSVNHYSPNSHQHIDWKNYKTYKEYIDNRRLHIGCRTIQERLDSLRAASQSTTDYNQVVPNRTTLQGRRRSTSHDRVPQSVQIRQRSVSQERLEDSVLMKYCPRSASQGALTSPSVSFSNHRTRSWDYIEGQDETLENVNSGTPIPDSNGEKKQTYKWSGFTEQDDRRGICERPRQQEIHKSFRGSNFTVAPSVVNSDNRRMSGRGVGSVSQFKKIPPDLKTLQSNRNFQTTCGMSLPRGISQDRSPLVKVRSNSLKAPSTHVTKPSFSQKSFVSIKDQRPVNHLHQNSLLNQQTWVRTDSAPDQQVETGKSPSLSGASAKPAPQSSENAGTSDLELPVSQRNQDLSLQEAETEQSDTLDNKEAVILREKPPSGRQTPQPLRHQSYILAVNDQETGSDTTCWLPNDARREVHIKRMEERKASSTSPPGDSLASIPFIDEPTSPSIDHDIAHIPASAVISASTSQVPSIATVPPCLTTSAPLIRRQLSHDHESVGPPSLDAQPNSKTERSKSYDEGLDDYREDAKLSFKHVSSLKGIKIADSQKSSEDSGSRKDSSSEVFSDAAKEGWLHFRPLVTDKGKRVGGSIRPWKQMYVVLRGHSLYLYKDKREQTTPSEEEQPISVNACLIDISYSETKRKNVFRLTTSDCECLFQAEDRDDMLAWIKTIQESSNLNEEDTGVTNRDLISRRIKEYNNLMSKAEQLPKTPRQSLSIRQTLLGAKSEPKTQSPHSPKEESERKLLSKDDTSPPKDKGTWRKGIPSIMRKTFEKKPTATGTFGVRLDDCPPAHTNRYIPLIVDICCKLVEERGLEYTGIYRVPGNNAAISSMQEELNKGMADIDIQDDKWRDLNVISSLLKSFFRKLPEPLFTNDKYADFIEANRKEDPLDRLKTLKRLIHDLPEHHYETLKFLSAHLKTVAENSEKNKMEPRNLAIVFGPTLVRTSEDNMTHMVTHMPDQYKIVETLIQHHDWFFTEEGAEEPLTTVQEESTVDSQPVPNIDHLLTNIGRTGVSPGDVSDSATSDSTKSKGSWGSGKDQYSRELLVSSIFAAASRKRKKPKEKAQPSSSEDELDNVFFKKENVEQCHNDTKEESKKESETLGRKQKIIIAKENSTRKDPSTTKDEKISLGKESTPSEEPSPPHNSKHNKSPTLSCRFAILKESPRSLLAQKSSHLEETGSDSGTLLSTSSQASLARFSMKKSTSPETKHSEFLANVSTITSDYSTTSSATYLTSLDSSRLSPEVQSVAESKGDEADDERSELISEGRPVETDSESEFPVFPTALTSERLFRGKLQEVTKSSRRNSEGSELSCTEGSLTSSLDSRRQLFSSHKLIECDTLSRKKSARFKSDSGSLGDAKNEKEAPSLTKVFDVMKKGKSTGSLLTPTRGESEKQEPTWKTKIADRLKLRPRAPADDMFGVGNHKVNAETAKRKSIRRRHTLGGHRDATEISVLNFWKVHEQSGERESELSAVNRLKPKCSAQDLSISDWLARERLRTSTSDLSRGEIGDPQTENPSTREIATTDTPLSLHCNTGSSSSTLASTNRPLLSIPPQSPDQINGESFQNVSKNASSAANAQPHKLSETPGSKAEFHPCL", "UniProt Q9H7C9": "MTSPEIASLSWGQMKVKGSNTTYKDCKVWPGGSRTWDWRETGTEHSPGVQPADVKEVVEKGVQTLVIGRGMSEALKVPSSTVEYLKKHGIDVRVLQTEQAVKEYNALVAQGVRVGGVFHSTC", "UniProt Q96Q83": "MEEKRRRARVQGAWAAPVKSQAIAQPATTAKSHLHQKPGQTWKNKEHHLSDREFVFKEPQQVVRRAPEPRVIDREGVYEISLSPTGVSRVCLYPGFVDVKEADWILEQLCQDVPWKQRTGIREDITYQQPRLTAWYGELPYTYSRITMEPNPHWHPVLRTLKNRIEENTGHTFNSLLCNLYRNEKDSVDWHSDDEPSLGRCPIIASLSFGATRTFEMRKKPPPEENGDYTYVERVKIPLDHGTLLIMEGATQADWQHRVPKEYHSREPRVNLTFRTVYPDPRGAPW", "UniProt Q8N8A2": "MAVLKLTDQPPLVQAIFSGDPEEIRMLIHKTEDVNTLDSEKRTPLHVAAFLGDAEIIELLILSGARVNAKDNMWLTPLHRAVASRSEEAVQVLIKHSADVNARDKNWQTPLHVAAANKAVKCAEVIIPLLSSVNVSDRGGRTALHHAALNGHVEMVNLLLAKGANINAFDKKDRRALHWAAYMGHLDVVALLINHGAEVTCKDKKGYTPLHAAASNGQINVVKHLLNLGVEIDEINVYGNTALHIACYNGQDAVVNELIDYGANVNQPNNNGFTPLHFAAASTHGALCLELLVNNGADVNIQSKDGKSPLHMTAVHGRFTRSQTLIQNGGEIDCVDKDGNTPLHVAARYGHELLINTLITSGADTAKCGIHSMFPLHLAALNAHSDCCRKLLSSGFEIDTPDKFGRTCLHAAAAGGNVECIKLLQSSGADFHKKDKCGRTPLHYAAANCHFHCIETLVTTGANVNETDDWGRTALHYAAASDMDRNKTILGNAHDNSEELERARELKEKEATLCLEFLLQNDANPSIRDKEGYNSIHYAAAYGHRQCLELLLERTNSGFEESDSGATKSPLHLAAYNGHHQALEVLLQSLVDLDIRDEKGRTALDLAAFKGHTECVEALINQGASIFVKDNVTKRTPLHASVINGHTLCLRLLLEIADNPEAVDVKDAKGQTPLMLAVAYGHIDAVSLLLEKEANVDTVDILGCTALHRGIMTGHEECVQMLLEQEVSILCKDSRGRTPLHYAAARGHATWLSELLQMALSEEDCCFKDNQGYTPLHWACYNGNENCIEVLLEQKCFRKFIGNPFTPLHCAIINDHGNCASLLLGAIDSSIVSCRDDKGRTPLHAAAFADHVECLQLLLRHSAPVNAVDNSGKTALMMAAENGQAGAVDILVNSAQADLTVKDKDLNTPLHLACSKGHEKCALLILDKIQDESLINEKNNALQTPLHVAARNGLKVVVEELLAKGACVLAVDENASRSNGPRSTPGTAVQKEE", "UniProt Q9ULX6": "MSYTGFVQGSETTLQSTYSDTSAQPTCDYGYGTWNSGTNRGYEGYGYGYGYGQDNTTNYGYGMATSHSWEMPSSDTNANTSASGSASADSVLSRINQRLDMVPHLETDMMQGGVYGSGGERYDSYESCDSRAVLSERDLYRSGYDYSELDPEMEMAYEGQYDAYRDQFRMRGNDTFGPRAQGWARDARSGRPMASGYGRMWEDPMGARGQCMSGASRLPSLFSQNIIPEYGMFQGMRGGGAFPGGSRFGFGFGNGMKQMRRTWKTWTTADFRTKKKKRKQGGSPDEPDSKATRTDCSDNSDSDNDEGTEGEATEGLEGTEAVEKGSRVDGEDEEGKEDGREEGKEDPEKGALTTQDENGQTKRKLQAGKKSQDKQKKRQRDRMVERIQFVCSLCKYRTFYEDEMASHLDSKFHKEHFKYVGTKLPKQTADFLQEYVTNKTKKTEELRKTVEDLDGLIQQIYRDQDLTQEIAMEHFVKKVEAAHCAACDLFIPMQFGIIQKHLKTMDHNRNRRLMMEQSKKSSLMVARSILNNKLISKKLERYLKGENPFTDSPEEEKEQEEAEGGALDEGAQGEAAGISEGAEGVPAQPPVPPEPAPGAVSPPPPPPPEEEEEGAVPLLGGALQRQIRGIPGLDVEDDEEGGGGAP", "UniProt P42025, whole entry": "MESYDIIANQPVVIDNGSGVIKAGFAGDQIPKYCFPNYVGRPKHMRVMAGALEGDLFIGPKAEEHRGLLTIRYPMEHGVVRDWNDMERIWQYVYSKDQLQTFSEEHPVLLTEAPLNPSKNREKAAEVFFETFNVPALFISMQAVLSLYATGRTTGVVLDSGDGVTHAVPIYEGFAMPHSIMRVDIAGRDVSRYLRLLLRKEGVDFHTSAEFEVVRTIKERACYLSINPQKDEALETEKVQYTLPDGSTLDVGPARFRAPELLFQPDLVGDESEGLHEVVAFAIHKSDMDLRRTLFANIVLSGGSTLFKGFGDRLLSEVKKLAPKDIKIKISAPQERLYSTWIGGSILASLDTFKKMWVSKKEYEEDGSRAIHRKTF", "UniProt Q9H8Y5": "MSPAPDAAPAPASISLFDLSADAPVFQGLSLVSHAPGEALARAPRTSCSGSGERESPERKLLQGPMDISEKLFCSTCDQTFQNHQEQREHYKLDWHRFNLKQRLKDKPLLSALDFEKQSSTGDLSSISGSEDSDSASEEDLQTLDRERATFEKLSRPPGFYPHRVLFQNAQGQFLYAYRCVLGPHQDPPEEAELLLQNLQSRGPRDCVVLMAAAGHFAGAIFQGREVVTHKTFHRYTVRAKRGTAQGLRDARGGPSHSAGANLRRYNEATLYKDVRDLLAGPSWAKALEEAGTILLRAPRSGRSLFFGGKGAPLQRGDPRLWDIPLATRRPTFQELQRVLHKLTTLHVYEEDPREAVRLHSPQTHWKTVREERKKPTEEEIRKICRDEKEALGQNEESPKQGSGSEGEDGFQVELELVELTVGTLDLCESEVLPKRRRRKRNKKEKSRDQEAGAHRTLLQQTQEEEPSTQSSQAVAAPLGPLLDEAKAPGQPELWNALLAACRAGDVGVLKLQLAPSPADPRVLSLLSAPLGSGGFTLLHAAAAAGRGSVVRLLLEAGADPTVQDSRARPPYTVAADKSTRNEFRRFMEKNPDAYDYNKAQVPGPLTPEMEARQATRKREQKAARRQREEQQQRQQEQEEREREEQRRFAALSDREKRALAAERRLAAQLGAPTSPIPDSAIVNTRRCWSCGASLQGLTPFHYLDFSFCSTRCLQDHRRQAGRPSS", "UniProt P09972": "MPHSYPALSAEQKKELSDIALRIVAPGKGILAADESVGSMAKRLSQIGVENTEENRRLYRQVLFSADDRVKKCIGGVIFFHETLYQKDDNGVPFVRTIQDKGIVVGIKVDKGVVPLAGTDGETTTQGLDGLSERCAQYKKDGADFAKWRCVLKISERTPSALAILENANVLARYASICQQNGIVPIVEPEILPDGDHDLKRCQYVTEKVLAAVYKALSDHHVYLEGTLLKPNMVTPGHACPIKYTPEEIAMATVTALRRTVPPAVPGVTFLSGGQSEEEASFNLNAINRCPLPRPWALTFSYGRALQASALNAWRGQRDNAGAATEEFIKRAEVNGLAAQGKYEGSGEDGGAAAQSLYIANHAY", "UniProt Q96IU4": "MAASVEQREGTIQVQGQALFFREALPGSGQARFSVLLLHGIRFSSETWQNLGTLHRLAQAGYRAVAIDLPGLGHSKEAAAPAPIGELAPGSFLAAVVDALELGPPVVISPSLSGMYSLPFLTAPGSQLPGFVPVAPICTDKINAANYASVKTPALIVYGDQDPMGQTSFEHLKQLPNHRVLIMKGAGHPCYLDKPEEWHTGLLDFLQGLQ", "UniProt P42331": "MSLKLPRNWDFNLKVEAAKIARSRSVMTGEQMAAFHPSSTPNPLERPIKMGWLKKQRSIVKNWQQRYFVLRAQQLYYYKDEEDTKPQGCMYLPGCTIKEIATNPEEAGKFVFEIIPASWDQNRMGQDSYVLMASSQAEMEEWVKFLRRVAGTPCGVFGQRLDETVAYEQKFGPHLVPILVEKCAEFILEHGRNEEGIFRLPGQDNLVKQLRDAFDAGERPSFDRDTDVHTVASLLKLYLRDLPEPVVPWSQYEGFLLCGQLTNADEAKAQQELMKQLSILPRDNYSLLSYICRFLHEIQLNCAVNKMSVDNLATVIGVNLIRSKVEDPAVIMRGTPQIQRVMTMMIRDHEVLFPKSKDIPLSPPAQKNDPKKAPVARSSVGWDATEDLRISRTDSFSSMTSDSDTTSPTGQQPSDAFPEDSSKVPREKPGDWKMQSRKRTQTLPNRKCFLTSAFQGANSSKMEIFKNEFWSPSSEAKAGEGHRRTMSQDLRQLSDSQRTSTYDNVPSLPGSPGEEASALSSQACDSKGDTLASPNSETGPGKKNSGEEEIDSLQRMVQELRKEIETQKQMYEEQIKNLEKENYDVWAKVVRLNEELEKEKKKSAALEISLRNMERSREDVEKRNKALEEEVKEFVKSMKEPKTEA"},
  "source": "the supplement of paper PMC7666118",
  "note": "The list shows a part of the results.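 The calls were made as follows: active = dose-dependent thermal stabilisation significant by F-test of dose-response against flat model at 10% FDR; inactive = not significant.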",
  "data": [
    {"compound": "Nc1nc2c(ncn2[C@@H]2O[C@H](COP(=O)(O)OP(=O)(O)OP(=O)(O)O)[C@@H](O)[C@H]2O)c(=O)[nH]1", "assay": "dose-dependent thermal stabilisation call (2D-TPP, DLPTP, 10% FDR) (binary (1 = stabilised)); higher = stabilised by the compound", "details": "system: Jurkat gel-filtered lysate; concentration range 1-500 µM", "procedure": "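2D thermal proteome profiling in gel-filtered Jurkat E6.1 lysate (2 mg/ml) treated with NaGTP (0, 1, 10, 100, 500 uM) for 10 min at room temperature, then heated 3 min at one of 12 temperatures (42-63.9 C). Soluble protein was quantified by TMT10 MS. The value is the DLPTP call of the paper: dose-dependent thermal stabilisation over all temperatures at 10% FDR (F-test of a dose-response against a flat model); one experiment, one call per tested protein.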", "values": [
      {"target": "ARHGAP21 (UniProt Q5T5U3)", "dose-dependent thermal stabilisation call": "inactive: 0"},
      {"target": "ACAT1 (UniProt P24752)", "dose-dependent thermal stabilisation call": "inactive: 0"},
      {"target": "AAMDC (UniProt Q9H7C9)", "dose-dependent thermal stabilisation call": "inactive: 0"},
      {"target": "ANKRD40 (UniProt Q6AI12)", "dose-dependent thermal stabilisation call": "inactive: 0"},
      {"target": "ACTL6A (UniProt O96019)", "dose-dependent thermal stabilisation call": "inactive: 0"},
      {"target": "ALKBH3 (UniProt Q96Q83)", "dose-dependent thermal stabilisation call": "inactive: 0"},
      {"target": "ANKRD52 (UniProt Q8NB46)", "dose-dependent thermal stabilisation call": "inactive: 0"},
      {"target": "AKAP11 (UniProt Q9UKA4)", "dose-dependent thermal stabilisation call": "inactive: 0"},
      {"target": "AGO1 (UniProt Q9UL18)", "dose-dependent thermal stabilisation call": "inactive: 0"},
      {"target": "ACACA (UniProt Q13085)", "dose-dependent thermal stabilisation call": "inactive: 0"},
      {"target": "ARHGAP1 (UniProt Q07960)", "dose-dependent thermal stabilisation call": "inactive: 0"},
      {"target": "ABRACL (UniProt Q9P1F3)", "dose-dependent thermal stabilisation call": "inactive: 0"},
      {"target": "APIP (UniProt Q96GX9)", "dose-dependent thermal stabilisation call": "inactive: 0"},
      {"target": "ARFGEF2 (UniProt Q9Y6D5)", "dose-dependent thermal stabilisation call": "inactive: 0"},
      {"target": "ADAR (UniProt P55265)", "dose-dependent thermal stabilisation call": "inactive: 0"},
      {"target": "ANKRD44 (UniProt Q8N8A2)", "dose-dependent thermal stabilisation call": "inactive: 0"},
      {"target": "AKAP8L (UniProt Q9ULX6)", "dose-dependent thermal stabilisation call": "inactive: 0"},
      {"target": "AHCY (UniProt P23526)", "dose-dependent thermal stabilisation call": "inactive: 0"},
      {"target": "ABHD11 (UniProt Q8NFV4)", "dose-dependent thermal stabilisation call": "inactive: 0"},
      {"target": "ANXA11 (UniProt P50995)", "dose-dependent thermal stabilisation call": "inactive: 0"},
      {"target": "ANKRA2 (UniProt Q9H9E1)", "dose-dependent thermal stabilisation call": "inactive: 0"},
      {"target": "AP3B1 (UniProt O00203)", "dose-dependent thermal stabilisation call": "inactive: 0"},
      {"target": "ACTR1B (UniProt P42025)", "dose-dependent thermal stabilisation call": "inactive: 0"},
      {"target": "AFF4 (UniProt Q9UHB7)", "dose-dependent thermal stabilisation call": "inactive: 0"},
      {"target": "ACSS1 (UniProt Q9NUB1)", "dose-dependent thermal stabilisation call": "active: 1"},
      {"target": "AP3S1 (UniProt Q92572)", "dose-dependent thermal stabilisation call": "active: 1"},
      {"target": "AP1G1 (UniProt O43747)", "dose-dependent thermal stabilisation call": "inactive: 0"},
      {"target": "ABLIM2 (UniProt Q6H8Q1)", "dose-dependent thermal stabilisation call": "inactive: 0"},
      {"target": "ANKZF1 (UniProt Q9H8Y5)", "dose-dependent thermal stabilisation call": "inactive: 0"},
      {"target": "AP1M1 (UniProt Q9BXS5)", "dose-dependent thermal stabilisation call": "active: 1"},
      {"target": "ARFGEF1 (UniProt Q9Y6D6)", "dose-dependent thermal stabilisation call": "inactive: 0"},
      {"target": "ALDOC (UniProt P09972)", "dose-dependent thermal stabilisation call": "inactive: 0"},
      {"target": "AARSD1 (UniProt Q9BTE6)", "dose-dependent thermal stabilisation call": "inactive: 0"},
      {"target": "AKT1S1 (UniProt Q96B36)", "dose-dependent thermal stabilisation call": "inactive: 0"},
      {"target": "ANXA6 (UniProt P08133)", "dose-dependent thermal stabilisation call": "inactive: 0"},
      {"target": "AMZ2 (UniProt Q86W34)", "dose-dependent thermal stabilisation call": "inactive: 0"},
      {"target": "ANP32B (UniProt Q92688)", "dose-dependent thermal stabilisation call": "inactive: 0"},
      {"target": "AAK1 (UniProt Q2M2I8)", "dose-dependent thermal stabilisation call": "inactive: 0"},
      {"target": "ABHD14B (UniProt Q96IU4)", "dose-dependent thermal stabilisation call": "inactive: 0"},
      {"target": "ARHGAP25 (UniProt P42331)", "dose-dependent thermal stabilisation call": "inactive: 0"}
    ]}
  ]
}
